Results published in patent US20100092549A1, “Dosage Form Containing Two or More Active Pharmaceutical Ingredients in Different Physical Forms” (priority 2007, published 2010).
At least one structure is not confirmed: it was looked up by name or label, or the drawing left a doubt.

Experiment: Related substance testing by HPLC on interaction samples after storage
Type: physicochemical
[1] = 40/75: incubator 40° C./75% RH for 6 days

With `Cc1cc2c(s1)Nc1ccccc1N=C2N1CCN(C)CC1` [Olanz API, Olanzapine] the “Impurity 1 (unknown related substance)” value [1] was 0.022, the “Impurity 3 (unknown related substance)” value [1] was 0.012 and the “Impurity 4 (unknown related substance)” value [1] was 0.019. The “Impurity A (unknown related substance)” value [1] was 0.012, the “Impurity 1 (unknown related substance)” value (CR: cold room storage) was 0.018 and the “Impurity 3 (unknown related substance)” value (CR: cold room storage) was 0.012. For the same compound, the “Impurity 4 (unknown related substance)” value (CR: cold room storage) was 0.021, the “Impurity A (unknown related substance)” value (CR: cold room storage) was 0.012 and the “Impurity 1 (unknown related substance)” value (Oven: 60° C. for 7 days) was 0.022. For the same compound, the “Impurity 3 (unknown related substance)” value (Oven: 60° C. for 7 days) was 0.014, the “Impurity 4 (unknown related substance)” value (Oven: 60° C. for 7 days) was 0.019 and the “Impurity A (unknown related substance)” value (Oven: 60° C. for 7 days) was 0.013.
